Source: patent publication US6709838
Results are given in words; binding and its absence hold for the method and conditions named. Binding seen in cells or lysates may run through a third protein. Some entries that bind do so weakly or less than the wild type. Where a sequence is shown, tags or fusion partners need not be part of it.

By UniProt entry, the sequences of proteins in these tests, tags left out. Where a name states a change or a piece, a line headed by the entry shows the natural chain unless it says otherwise.
UniProt P97698: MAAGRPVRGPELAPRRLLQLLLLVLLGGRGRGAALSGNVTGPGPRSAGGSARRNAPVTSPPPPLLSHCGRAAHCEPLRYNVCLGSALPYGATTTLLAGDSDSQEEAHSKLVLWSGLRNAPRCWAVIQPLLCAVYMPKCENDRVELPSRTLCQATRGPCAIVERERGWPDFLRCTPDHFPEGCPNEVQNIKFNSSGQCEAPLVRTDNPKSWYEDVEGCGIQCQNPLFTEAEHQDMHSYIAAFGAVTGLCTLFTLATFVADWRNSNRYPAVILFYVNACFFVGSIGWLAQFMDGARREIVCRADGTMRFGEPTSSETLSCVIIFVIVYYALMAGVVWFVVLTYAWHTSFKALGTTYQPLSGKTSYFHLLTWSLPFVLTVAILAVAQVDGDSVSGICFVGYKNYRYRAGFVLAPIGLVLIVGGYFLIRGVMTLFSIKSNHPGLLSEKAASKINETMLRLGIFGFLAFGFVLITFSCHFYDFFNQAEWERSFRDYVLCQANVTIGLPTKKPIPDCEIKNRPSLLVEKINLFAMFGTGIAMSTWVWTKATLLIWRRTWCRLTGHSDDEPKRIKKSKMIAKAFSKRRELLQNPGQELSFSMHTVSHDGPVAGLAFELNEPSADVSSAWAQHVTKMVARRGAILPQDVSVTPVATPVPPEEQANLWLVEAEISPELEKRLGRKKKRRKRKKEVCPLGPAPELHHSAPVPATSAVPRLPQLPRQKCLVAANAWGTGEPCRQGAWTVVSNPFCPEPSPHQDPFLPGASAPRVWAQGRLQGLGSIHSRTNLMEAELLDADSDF

Experiments:
[1] = molecular target: myc-epitope tagged Smo (SEQ ID NO:15) (Rattus norvegicus (Rat)) (UniProt P97698); test: co-immunoprecipitation and western blot, co-transfected 293 cells (FIG. 7B legend)
[2] = molecular target: myc-epitope tagged Smo (SEQ ID NO:15) (Rattus norvegicus (Rat)) (UniProt P97698); test: co-immunoprecipitation (summary of Example 1)
[3] = molecular target: myc-epitope tagged Smo (SEQ ID NO:15) (Rattus norvegicus (Rat)) (UniProt P97698); test: co-immunoprecipitation with 9E10 anti-myc or M2 anti-FLAG, western blot
[4] = molecular target: myc-epitope tagged Smo (SEQ ID NO:15) (Rattus norvegicus (Rat)) (UniProt P97698); test: co-immunoprecipitation, co-transfected 293 cells

Measured: binding

B1: Flag-tagged Ptch-2 (SEQ ID NO:2) (receptor, not shown: small tags and cut ends)
chain: MTRSPPLRELPPSYTPPARTAAPQILAGSLKAPLWLRAYFQGLLFSLGCGIQRHCGKVLFLGLLAFGALALGLRMAIIETNLEQLWVEVGSRVSQELHYTKEKLGEEAAYTSQMLIQTARQEGENILTPEALGLHLQAALTASKVQVSLYGKSWDLNKICYKSGVPLIENGMIEWMIEKLFPCVILTPLDCFWEGAKLQGGSAYLPGRPDIQWTNLDPEQLLEELGPFASLEGFRELLDKAQVGQAYVGRPCLHPDDLHCPPSAPNHHSRQAPNVAHELSGGCHGFSHKFMHWQEELLLGGMARDPQGELLRAEALQSTFLLMSPRQLYEHFRGDYQTHDIGWSEEQASTVLQAWQRRFVQLAQEALPENASQQIHAFSSTTLDDILHAFSEVSAARVVGGYLLMLAYACVTMLRWDCAQSQGSVGLAGVLLVALAVASGLGLCALLGITFNAATTQVLPFLALGIGVDDVFLLAHAFTEALPGTPLQERMGECLQRTGTSVVLTSINNMAAFLMAALVPIPALRAFSLQAAIVVGCTFVAVMLVFPAILSLDLRRRHCQRLDVLCCFSSPCSAQVIQILPQELGDGTVPVGIAHLTATVQAFTHCEASSQHVVTILPPQAHLVPPPSDPLGSELFSPGGSTRDLLGQEEETRQKAACKSLPCARWNLAHFARYQFAPLLLQSHAKAIVLVLFGALLGLSLYGATLVQDGLALTDVVPRGTKEHAFLSAQLRYFSLYEVALVTQGGFDYAHSQRALFDLHQRFSSLKAVLPPPATQAPRTWLHYYRNWLQGIQAAFDQDWASGRITRHSYRNGSEDGALAYKLLIQTGDAQEPLDFSQLTTRKLVDREGLIPPELFYMGLTVWVSSDPLGLAASQANFYPPPPEWLHDKYDTTGENLRIPPAQPLEFAQFPFLLRGLQKTADFVEAIEGARAACAEAGQAGVHAYPSGSPFLFWEQYLGLRRCFLLAVCILLVCTFLVCALLLLNPWTAGLIVLVLAMMTVELFGIMGFLGIKLSAIPVVILVASVGIGVEFTVHVALGFLTTQGSRNLRAAHALEHTFAPVTDGAISTLLGLLMLAGSHFDFIVRYFFAALTVLTLLGLLHGLVLLPVLLSILGPPPEVIQMYKESPEILSPPAPQGGGLRWGASSSLPQSFARVTTSMTVAIHPPPLPGAYIHPAPDEPPWSPAATSSGNLSSRGPGPATG
binds: all assays above
